{"source": "PubChem BioAssay AID1259308 (NCATS, 2017)", "test": "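Genes whose loss raises luciferase production in HEK293 cells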 (primary screen)", "cells": "human HEK293 embryonic kidney cells stably expressing firefly luciferase (HEK-CMV-Luc2-Hygro)", "reagents": "single siRNA against human genes, 0.8 pmol siRNA per well", "duration": "72 h", "read-out": "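Luciferase light (ONE-Glo) measured on one replicate plate set and viability (CellTiter-Glo) on the other, scaled to a negative control siRNA, with robust z-scores and luciferase per cell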", "direction": "total luciferase, z-score and total luciferase, % of control: higher = more reporter protein produced", "hit rule": "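An siRNA counts as active if its total luciferase robust z-score exceeds 3; genes with two or more such siRNAs out of three were retested with fresh siRNAs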", "meaning of the calls": "active = raised luciferase; inactive = no rise", "note": "In all, the deposit lists about 59,000 reagents; below is a part drawn at random. In the full data, about 1,510 (2.6%) are marked active. 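Calls use total luciferase alone and ignore viability, so some active siRNAs may act by altering cell number.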 Unmarked entries are inactive. The numbers tell different reagents against one gene apart. Not all columns of the deposit are shown. Reagent sequences are not shown."}
{"gene": "SSH2", "siRNA no.": 1, "total luciferase, z-score": -0.56, "total luciferase, % of control": 70.7}
{"gene": "SSH2", "siRNA no.": 2, "total luciferase, z-score": -0.0638, "total luciferase, % of control": 80.6}
{"gene": "SSH2", "siRNA no.": 3, "total luciferase, z-score": -0.839, "total luciferase, % of control": 65.2}
{"gene": "RCOR3", "siRNA no.": 1, "total luciferase, z-score": -0.937, "total luciferase, % of control": 63.2}
{"gene": "RCOR3", "siRNA no.": 2, "total luciferase, z-score": -1.4, "total luciferase, % of control": 54}
{"gene": "RCOR3", "siRNA no.": 3, "total luciferase, z-score": 2.07, "total luciferase, % of control": 123}
{"gene": "OTOGL", "siRNA no.": 1, "total luciferase, z-score": -0.178, "total luciferase, % of control": 78.4}
{"gene": "OTOGL", "siRNA no.": 2, "total luciferase, z-score": -1.04, "total luciferase, % of control": 61.2}
{"gene": "OTOGL", "siRNA no.": 3, "total luciferase, z-score": 0.603, "total luciferase, % of control": 93.9}
{"gene": "CSNK1A1", "siRNA no.": 1, "total luciferase, z-score": -1.55, "total luciferase, % of control": 51.1}
{"gene": "CSNK1A1", "siRNA no.": 2, "total luciferase, z-score": 1.29, "total luciferase, % of control": 108}
{"gene": "CSNK1A1", "siRNA no.": 3, "total luciferase, z-score": "3.01 (active)", "total luciferase, % of control": 142}
{"gene": "PFN4", "siRNA no.": 1, "total luciferase, z-score": -0.0885, "total luciferase, % of control": 80.1}
{"gene": "PFN4", "siRNA no.": 2, "total luciferase, z-score": -1.74, "total luciferase, % of control": 47.3}
{"gene": "PFN4", "siRNA no.": 3, "total luciferase, z-score": 0.712, "total luciferase, % of control": 96}
{"gene": "SPPL2C", "siRNA no.": 1, "total luciferase, z-score": -0.391, "total luciferase, % of control": 74.1}
{"gene": "SPPL2C", "siRNA no.": 2, "total luciferase, z-score": 1.65, "total luciferase, % of control": 115}
{"gene": "SPPL2C", "siRNA no.": 3, "total luciferase, z-score": -0.456, "total luciferase, % of control": 72.8}
{"gene": "TLR6", "siRNA no.": 1, "total luciferase, z-score": 0.67, "total luciferase, % of control": 95.2}
{"gene": "TLR6", "siRNA no.": 2, "total luciferase, z-score": 0.706, "total luciferase, % of control": 95.9}
{"gene": "TLR6", "siRNA no.": 3, "total luciferase, z-score": 0.0339, "total luciferase, % of control": 82.6}
{"gene": "ERO1A", "siRNA no.": 1, "total luciferase, z-score": -0.177, "total luciferase, % of control": 78.4}
{"gene": "ERO1A", "siRNA no.": 2, "total luciferase, z-score": 1.24, "total luciferase, % of control": 107}
{"gene": "ERO1A", "siRNA no.": 3, "total luciferase, z-score": -0.303, "total luciferase, % of control": 75.9}
{"gene": "MACROH2A2", "siRNA no.": 1, "total luciferase, z-score": -0.57, "total luciferase, % of control": 70.5}
{"gene": "MACROH2A2", "siRNA no.": 2, "total luciferase, z-score": 1.01, "total luciferase, % of control": 102}
{"gene": "MACROH2A2", "siRNA no.": 3, "total luciferase, z-score": 0.219, "total luciferase, % of control": 86.2}
{"gene": "UACA", "siRNA no.": 1, "total luciferase, z-score": 0.0936, "total luciferase, % of control": 83.7}
{"gene": "UACA", "siRNA no.": 2, "total luciferase, z-score": -0.127, "total luciferase, % of control": 79.4}
{"gene": "UACA", "siRNA no.": 3, "total luciferase, z-score": 0.876, "total luciferase, % of control": 99.3}
{"gene": "PI4KAP2", "siRNA no.": 1, "total luciferase, z-score": -1.22, "total luciferase, % of control": 57.7}
{"gene": "PI4KAP2", "siRNA no.": 2, "total luciferase, z-score": 1.37, "total luciferase, % of control": 109}
{"gene": "PI4KAP2", "siRNA no.": 3, "total luciferase, z-score": 1.57, "total luciferase, % of control": 113}
